In article doi:10.1101/2023.04.10.536212:
Results are given in words; binding and its absence hold for the method and conditions named. In cells and extracts the contact can be indirect. Some entries that bind do so weakly or less than the wild type.

By UniProt entry, the sequences of proteins in these tests, tags left out.
UniProt Q01860, whole entry: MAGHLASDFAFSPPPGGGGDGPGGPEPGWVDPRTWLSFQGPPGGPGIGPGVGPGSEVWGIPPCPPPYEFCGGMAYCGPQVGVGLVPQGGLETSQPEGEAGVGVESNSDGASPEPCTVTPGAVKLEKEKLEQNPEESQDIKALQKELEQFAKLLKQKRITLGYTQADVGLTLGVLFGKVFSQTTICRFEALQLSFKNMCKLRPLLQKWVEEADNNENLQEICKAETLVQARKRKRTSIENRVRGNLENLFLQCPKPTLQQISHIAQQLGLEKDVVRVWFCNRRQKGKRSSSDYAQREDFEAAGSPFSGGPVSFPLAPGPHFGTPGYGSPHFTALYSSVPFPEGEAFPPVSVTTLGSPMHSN
UniProt P08670, whole entry: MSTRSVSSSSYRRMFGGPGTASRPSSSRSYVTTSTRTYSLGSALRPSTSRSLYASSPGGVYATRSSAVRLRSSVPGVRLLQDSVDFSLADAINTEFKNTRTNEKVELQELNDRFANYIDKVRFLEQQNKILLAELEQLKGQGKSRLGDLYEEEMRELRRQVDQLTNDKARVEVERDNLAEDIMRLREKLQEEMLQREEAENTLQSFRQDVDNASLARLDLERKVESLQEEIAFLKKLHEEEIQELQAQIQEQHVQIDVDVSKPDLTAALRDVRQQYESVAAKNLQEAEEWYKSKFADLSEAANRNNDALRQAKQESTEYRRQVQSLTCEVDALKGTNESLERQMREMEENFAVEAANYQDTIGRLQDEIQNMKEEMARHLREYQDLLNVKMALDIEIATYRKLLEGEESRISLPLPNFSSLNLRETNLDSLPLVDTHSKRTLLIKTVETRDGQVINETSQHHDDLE
UniProt P12004, whole entry: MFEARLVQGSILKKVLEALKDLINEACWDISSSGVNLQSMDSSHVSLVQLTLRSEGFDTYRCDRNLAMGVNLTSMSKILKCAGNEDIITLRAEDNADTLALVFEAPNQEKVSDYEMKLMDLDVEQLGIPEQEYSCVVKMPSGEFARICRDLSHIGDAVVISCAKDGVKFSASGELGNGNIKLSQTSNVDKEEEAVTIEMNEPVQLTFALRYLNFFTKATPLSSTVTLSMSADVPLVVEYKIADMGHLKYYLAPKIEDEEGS

Biological target: Octamer-binding transcription factor-4 (Oct4) (UniProt Q01860)
Assay: co-IP

Substance: Vimentin (from UniProt P08670 1-466)
- binding: binds

Substance: PCNA (from UniProt P12004 1-261)
- binding: binds
